Laboratory results published in paper PMC8446801, “Coiled-coil binding of the leucine zipper domains of APOL1 is necessary for the open cation channel conformation” (The Journal of Biological Chemistry, 2021).
Results are given in words; binding and its absence hold for the method and conditions named.

How the values were obtained:
APOL1 A375C (human) [1] = molecular target: APOL1 A375C (human) (UniProt O14791); assay: condition: only 2 h at pH 5.6 with only brief neutralization (adjusted to pH 7.2 immediately before addition of sample buffer); cross-linking; disulfide trapping between substituted cysteines, no membranes; protein (~0.159 uM) in 0.2 ml buffer (5 mM succinate, 5 mM Hepes, 0.5 mM KCl, 5 mM CaCl2), room temperature, 2 h at pH 5.6, neutralised only immediately before addition of sample buffer; nonreducing SDS-PAGE, silver stain; both …
APOL1 A375C (human) [2] = molecular target: APOL1 A375C (human) (UniProt O14791); assay: condition: only 2 h at pH 7.2 without prior acidification; cross-linking; disulfide trapping between substituted cysteines, no membranes; protein (~0.159 uM) in 0.2 ml buffer (5 mM succinate, 5 mM Hepes, 0.5 mM KCl, 5 mM CaCl2), room temperature, 2 h at pH 7.2; nonreducing SDS-PAGE, silver stain; both purified

B1: APOL1 A375C (natural protein, human, UniProt O14791 28-398, looked up)
chain: EEAGARVQQNVPSGTDTGDPQSKPLGDWAAGTMDPESSIFIEDAIKYFKEKVSTQNLLLLLTDNEAWNGFVAAAELPRNEADELRKALDNLARQMIMKDKNWHDKGQQYRNWFLKEFPRLKSKLEDNIRRLRALADGVQKVHKGTTIANVVSGSLSISSGILTLVGMGLAPFTEGGSLVLLEPGMELGITAALTGITSSTIDYGKKWWTQAQAHDLVIKSLDKLKEVKEFLGENISNFLSLAGNTYQLTRGIGKDIRALRRARANLQSVPHASASRPRVTEPISAESGEQVERVNEPSILEMSRGVKLTDVAPVSFFLVLDVVYLVYESKHLHEGAKSETAEELKKVCQELEEKLNILNNNYKILQADQEL
notes: Apolipoprotein L-I (APOL1) G0, human, aa 28-398 (without the signal peptide), most common isoform K150, I228, K255 (GenBank AAI12944.2); Cysteine at the a position of the C-terminal leucine zipper (ZIP) domain; APOL1 has no endogenous cysteines; Stored with 1 mM DTT in the SEC buffer; also called apolipoprotein L-I A375C; source: E. coli BL21-DE3-RIPL, purified (nickel-chelate chromatography, …)
binding (APOL1 A375C (human) [1]): no binding | binding (APOL1 A375C (human) [2]): no binding
